The values that follow are results of earlier work, collected in patent US20200009168A1, “MICROBIOME REGULATORS AND RELATED USES THEREOF” (KALEIDO BIOSCIENCES, INC., priority 2015, published 2020).

The structures appear in SMILES notation. Some entries repeat one wording, which the source may state once for all of them.

For this data set the following is noted: sucrose as reference; cited from earlier work.
`O=C[C@H](O)[C@@H](O)[C@@H](O)[C@H](O)CO` [D-galactose]: the “relative sweetness compared to sucrose, in words” value (from here on “relative sweetness”) is given as “roughly as sweet or, in many cases, less sweet than sucrose”.

As for `OC[C@@H](O)[C@@H](O)[C@H](O)[C@@H](O)CO` [D-sorbitol], the “relative sweetness” value is reported as “roughly as sweet or, in many cases, less sweet than sucrose”.

As to `O=C(CO)[C@@H](O)[C@H](O)[C@H](O)CO` [D-fructose], the “relative sweetness” value was “roughly as sweet or, in many cases, less sweet than sucrose”.

`OC[C@H]1O[C@@H](O[C@H]2[C@H](O)[C@@H](O)C(O)O[C@@H]2CO)[C@H](O)[C@@H](O)[C@H]1O` (stereo partly drawn) [lactose]: the “relative sweetness” value is on record as “roughly as sweet or, in many cases, less sweet than sucrose”.

In the case of `O=C[C@H](O)[C@@H](O)[C@H](O)CO` [D-xylose], the “relative sweetness” value is given as “roughly as sweet or, in many cases, less sweet than sucrose”.

For `OC[C@H]1O[C@H](O[C@H]2[C@H](O)[C@@H](O)[C@H](O)O[C@@H]2CO)[C@H](O)[C@@H](O)[C@@H]1O` [D (+) maltose], the “relative sweetness” value is given as “roughly as sweet or, in many cases, less sweet than sucrose”.
